Assay results reported in PubChem BioAssay AID2685 (National Center for Advancing Translational Sciences (NCATS), 2010).
Some of the results follow. These are further read-outs of the screen, such as a control signal, another cell line or another target. No call is given for them. The list favours compounds with an active or inconclusive main result. The note in brackets gives the kind of curve behind each potency; many fits are weak.

Test: qHTS Assay for Lipid Storage Modulators in Drosophila S3 Cells;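 on cell number change: cells counted by Cell Tracker Red CMTPX staining in the red channel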
Conditions: BODIPY lipid droplet fluorescence, 18-24 h; for cell number change: measured here: cell count max response, cells fed with added oleic acid
Method in brief: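 Drosophila S3 cells loaded with oleic acid (400 uM, as added) and compounds at several concentrations; lipid droplets imaged by 488-nm laser-scanning cytometry, 500–530 nm intensity and object ratio to cell channel. Percent activity normalized to 20 uM Triacsin C.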

[1] = measured here: cell number channel AC50, cells fed with added oleic acid
[2] = measured here: lipid fluorescence (Fed channel) AC50, cells fed with added oleic acid

| SMILES | cell number change [%] | AC50 [1] | AC50 [2] |
| --- | --- | --- | --- |
| CN(c1ccc(C(=O)Nc2cccnc2)cc1)S(C)(=O)=O | 6.43 | 0.731 µM [rising, single point] | – |
| COc1ccccc1-c1noc(-c2ccccc2C(=O)Nc2ccccc2)n1 | 26.3 | 0.0058 µM [rising, full curve, poor fit] | – |
| COc1cccc(/C=N/NC(=O)c2ccc(OCc3cccc(Br)c3)cc2)c1 | 34.5 | 13 µM [rising, partial curve, poor fit] | – |
| COC(=O)c1ccc(C)c(NC(=O)CCSc2ccccc2)c1 | – | – | 29.1 µM [falling, single point] |
| Cn1nc(-c2ccccc2)c(-c2nc(-c3cccc(Cl)c3)no2)c1Cl | – | 0.82 µM [rising, partial curve, poor fit] | 2.31 µM [rising, partial curve] |
| CC(=O)Nc1ccc(S(=O)(=O)NCCC(=O)N2CCC(Cc3ccccc3)CC2)cc1 | 29 | – | 0.231 µM [rising, full curve, poor fit] |
| COc1ccc(C2(O)CCN(C(=O)c3c(F)cccc3F)CC2)cc1 | -7.05 | – | 0.103 µM [falling, full curve, poor fit] |
| CC1(C)CC(=O)C(=CN2CCOCC2)C(=O)C1 | -24.3 | 5.17 µM [rising, partial curve, poor fit] | – |
| C(=N\C(/N=C/c1ccco1)c1ccco1)/c1ccco1 | 13 | – | 2.59 µM [rising, partial curve, poor fit] |
| CS(=O)(=O)c1ccc2nc(NC(=O)CN3C(=O)NC4(CCCC4)C3=O)sc2c1 | 4.42 | – | 18.4 µM [rising, single point] |
| Cc1ccc(-c2ccc(=O)n(Cc3cc(C)ccc3C)n2)cc1 | -76.8 | 29.1 µM [falling, single point] | 11.6 µM [falling, single point] |
| O=C(c1ccc(F)cc1)N1CCN(C2CC3CCC2C3)CC1 (configuration not stated) | -10.1 | – | – |
| O=C(O)c1ccc(OCc2ccc(C(=O)O)o2)cc1 | -45 | 29.1 µM [falling, single point] | – |
| C=CCN1C(=O)C(Cc2ccc(OC)cc2)S/C1=N/N=C/c1ccco1 (configuration not stated) | – | 2.59 µM [rising, partial curve] | 1.64 µM [rising, partial curve] |
| C=C(C)CSc1nnc(-c2ccccc2)n1N | 1.74 | – | – |
| Cc1ccc(S(=O)(=O)NCc2ccccc2)s1 | 12.5 | – | – |

Record cards (already shown).
C(=N\C(/N=C/c1ccco1)c1ccco1)/c1ccco1 in the list: cell number change [%]: 13; AC50 [2]: 2.59 µM [rising, partial curve, poor fit]
COc1ccc(C2(O)CCN(C(=O)c3c(F)cccc3F)CC2)cc1 in the list: cell number change [%]: -7.05; AC50 [2]: 0.103 µM [falling, full curve, poor fit]

(further entries)

| SMILES | cell number change [%] | AC50 [1] | AC50 [2] |
| --- | --- | --- | --- |
| O=C(OCC(=O)N1CCCc2ccccc21)c1cc(S(=O)(=O)N2CCOCC2)ccc1F | -14.8 | – | 29.1 µM [rising, single point] |
| COc1ccc(OC)c(NC(=O)c2cc(-c3cc(Cl)ccc3O)n[nH]2)c1 | -31.6 | 32.6 µM [falling, single point] | 0.231 µM [rising, full curve, poor fit] |
| Cc1ccc(S(=O)(=O)NC2CCCCCC2)cc1C(N)=O | -7.92 | – | 29.1 µM [rising, single point] |
| Cc1cccn2c(CNCCCn3ncc4ccccc43)c(C(=O)N3CCCCC3)nc12 | -24.7 | – | 3.26 µM [falling, single point] |
| Cc1ccc(S(=O)(=O)N2CCN(C(=O)CN3CCCCC3)C2)cc1 | -27.1 | 3.66 µM [falling, full curve, poor fit] | 20.6 µM [falling, single point] |
| CN(CCO)c1c2c(nc3cc(-c4cccc(F)c4)nn13)CCCC2 | -7.35 | – | – |
| c1cnc(SCCOc2ccc3c(c2)CCC3)nc1 | – | – | 6.51 µM [rising, single point] |
| c1ccc2c(c1)ncn2CCCCOc1ccc2c(c1)CCC2 | -77.7 | 29.1 µM [falling, single point] | 29.1 µM [falling, single point] |
| COc1cc(-c2cc(C(=O)Nc3ccncc3)c3ccccc3n2)cc(OC)c1OC | -4.82 | – | 32.6 µM [falling, single point] |
| Cc1cc(NC(=O)CCC(=O)N(c2ccccc2C)C(C(=O)NC2CCCC2)c2ccccc2)no1 (configuration not stated) | 20.4 | – | 0.58 µM [rising, single point] |
| CCOc1ccc(NC(=O)c2ccc(N3CC4CC(C3)c3cccc(=O)n3C4)c(N)c2)cc1 (configuration not stated) | 20.6 | – | 14.6 µM [rising, partial curve] |
| O=c1c2ccccc2nnn1COc1cccc2ccccc12 | 10.9 | – | – |
| O=C(CCCSc1nc2ccccc2[nH]1)Nc1nnc(C2CC2)s1 | 11.4 | – | 4.11 µM [falling, single point] |
| Cc1ccc([C@@H]2[C@@H]3C(=O)N(C)C(=O)[C@@H]3[C@]3(Cc4ccccc4)C(=O)N(CCO)CC(=O)N23)o1 | 9.58 | – | – |
| O=C(CSc1nnnn1C1CCCC1)Nc1ccc2c(c1)OCO2 | 23.4 | – | – |
